{
  "sequences": {"note": "Chains of the proteins cited; added tags and fusions are not shown.", "UniProt P09874, whole entry, species assumed": "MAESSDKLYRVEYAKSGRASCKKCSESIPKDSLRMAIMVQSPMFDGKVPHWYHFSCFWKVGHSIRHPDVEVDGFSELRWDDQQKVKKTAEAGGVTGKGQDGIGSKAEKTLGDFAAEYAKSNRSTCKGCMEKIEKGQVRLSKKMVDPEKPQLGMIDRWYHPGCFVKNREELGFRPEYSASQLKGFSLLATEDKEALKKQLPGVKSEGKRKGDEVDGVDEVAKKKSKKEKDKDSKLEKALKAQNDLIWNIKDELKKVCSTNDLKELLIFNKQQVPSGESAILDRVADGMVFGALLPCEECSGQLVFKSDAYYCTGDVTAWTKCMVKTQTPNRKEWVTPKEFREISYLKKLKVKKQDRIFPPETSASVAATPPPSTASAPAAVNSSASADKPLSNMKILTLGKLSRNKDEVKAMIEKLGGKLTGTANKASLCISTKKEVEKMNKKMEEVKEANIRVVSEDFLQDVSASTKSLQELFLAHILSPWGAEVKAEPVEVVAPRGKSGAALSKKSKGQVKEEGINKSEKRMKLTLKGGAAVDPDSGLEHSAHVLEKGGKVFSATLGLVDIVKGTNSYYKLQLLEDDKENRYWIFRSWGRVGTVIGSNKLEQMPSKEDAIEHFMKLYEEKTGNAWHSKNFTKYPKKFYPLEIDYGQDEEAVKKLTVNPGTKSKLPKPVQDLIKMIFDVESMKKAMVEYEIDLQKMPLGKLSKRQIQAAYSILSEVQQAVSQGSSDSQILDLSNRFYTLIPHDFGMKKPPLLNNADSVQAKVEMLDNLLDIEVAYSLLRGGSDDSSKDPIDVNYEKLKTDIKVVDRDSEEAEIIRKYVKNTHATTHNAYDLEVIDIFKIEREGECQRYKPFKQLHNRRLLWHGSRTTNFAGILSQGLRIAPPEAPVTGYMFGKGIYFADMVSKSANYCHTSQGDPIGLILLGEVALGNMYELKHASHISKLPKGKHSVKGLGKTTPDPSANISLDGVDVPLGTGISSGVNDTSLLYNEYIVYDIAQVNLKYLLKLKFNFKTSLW"},
  "source": "patent US12329765B2",
  "about": "“Targeted nanoparticle for the treatment of traumatic brain injury and other CNS diseases” (priority 2021, dated 2025)",
  "key": {"[1]": {"test": "In vitro minocycline release by dialysis method", "type": "physicochemical", "details": "PBS pH 7.4, 37° C."}, "[2]": {"molecular_target": "poly (ADP-ribose) polymerase 1 (PARP-1) (Homo sapiens, UniProt P09874)", "details": "0.1 μM minocycline, in vitro; cited from earlier work"}, "moderate bTBI rat model": {"system": "moderate bTBI rat model", "test": "Novel object recognition test", "type": "in vivo", "details": "chronic time point (35th day); 3 mg/kg minocycline for 4 days"}, "GFAP": {"system": "GFAP", "test": "GFAP immunostaining (astrocytes) in AC and IC", "type": "in vivo, rat"}, "IBA": {"system": "IBA", "test": "IBA immunohistochemistry (microglia activation) in AC and IC", "type": "in vivo, rat", "details": "auditory cortex (AC)"}},
  "note": "At least one compound was matched to its structure with a doubt left.",
  "data": [
    {"smiles": "CN(C)c1ccc(O)c2c1C[C@H]1C[C@H]3[C@H](N(C)C)C(O)=C(C(N)=O)C(=O)[C@@]3(O)C(O)=C1C2=O", "note": "[minocycline, Minocycline]", "values": [
      {"measurement": "minocycline released in vitro", "setting": "[1]; 24 h", "result": "98.3±1.8", "unit": "%"},
      {"measurement": "minocycline released in vitro", "setting": "[1]; after 30 min", "result": "61.5±2.4", "unit": "%"},
      {"measurement": "PARP-1 enzyme activity", "setting": "[2]", "result": "inhibit"},
      {"measurement": "short term memory (novel object recognition)", "setting": "moderate bTBI rat model", "result": "decreased over the time"},
      {"measurement": "GFAP astrocytes level, recovery after blast injury", "setting": "GFAP; AC and IC", "result": "promising recovery"},
      {"measurement": "GFAP astrocyte level versus blast", "setting": "GFAP; inferior colliculus (IC)", "result": "significant decrease"},
      {"measurement": "IBA intensity (activated microglia) versus blast", "setting": "IBA", "result": "significantly reduced"},
      {"measurement": "IBA intensity (activated microglia) versus blast", "setting": "IBA; listed as Minocycline", "result": "significant decrease"}
    ]}
  ]
}
